No constants are given. Whether binding was seen depends on the method and setting. Binding seen in cells or lysates may run through a third protein.
Target: interleukin-8 (IL-8) (UniProt P10145)
Experiment: co-IP; lysate of cells transfected with pCDNA3-HA-p300 incubated overnight with anti-IL-8 antibody and Sepharose beads; washed three times with cold lysis buffer; SDS-PAGE and western blot; IgG as negative control, CBP as positive control

Chains of the proteins cited; added tags and fusions are not shown. Residues count along the entry.
UniProt P10145, residues 21-99: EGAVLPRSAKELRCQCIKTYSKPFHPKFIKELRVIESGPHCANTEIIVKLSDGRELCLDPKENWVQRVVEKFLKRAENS
UniProt Q09472: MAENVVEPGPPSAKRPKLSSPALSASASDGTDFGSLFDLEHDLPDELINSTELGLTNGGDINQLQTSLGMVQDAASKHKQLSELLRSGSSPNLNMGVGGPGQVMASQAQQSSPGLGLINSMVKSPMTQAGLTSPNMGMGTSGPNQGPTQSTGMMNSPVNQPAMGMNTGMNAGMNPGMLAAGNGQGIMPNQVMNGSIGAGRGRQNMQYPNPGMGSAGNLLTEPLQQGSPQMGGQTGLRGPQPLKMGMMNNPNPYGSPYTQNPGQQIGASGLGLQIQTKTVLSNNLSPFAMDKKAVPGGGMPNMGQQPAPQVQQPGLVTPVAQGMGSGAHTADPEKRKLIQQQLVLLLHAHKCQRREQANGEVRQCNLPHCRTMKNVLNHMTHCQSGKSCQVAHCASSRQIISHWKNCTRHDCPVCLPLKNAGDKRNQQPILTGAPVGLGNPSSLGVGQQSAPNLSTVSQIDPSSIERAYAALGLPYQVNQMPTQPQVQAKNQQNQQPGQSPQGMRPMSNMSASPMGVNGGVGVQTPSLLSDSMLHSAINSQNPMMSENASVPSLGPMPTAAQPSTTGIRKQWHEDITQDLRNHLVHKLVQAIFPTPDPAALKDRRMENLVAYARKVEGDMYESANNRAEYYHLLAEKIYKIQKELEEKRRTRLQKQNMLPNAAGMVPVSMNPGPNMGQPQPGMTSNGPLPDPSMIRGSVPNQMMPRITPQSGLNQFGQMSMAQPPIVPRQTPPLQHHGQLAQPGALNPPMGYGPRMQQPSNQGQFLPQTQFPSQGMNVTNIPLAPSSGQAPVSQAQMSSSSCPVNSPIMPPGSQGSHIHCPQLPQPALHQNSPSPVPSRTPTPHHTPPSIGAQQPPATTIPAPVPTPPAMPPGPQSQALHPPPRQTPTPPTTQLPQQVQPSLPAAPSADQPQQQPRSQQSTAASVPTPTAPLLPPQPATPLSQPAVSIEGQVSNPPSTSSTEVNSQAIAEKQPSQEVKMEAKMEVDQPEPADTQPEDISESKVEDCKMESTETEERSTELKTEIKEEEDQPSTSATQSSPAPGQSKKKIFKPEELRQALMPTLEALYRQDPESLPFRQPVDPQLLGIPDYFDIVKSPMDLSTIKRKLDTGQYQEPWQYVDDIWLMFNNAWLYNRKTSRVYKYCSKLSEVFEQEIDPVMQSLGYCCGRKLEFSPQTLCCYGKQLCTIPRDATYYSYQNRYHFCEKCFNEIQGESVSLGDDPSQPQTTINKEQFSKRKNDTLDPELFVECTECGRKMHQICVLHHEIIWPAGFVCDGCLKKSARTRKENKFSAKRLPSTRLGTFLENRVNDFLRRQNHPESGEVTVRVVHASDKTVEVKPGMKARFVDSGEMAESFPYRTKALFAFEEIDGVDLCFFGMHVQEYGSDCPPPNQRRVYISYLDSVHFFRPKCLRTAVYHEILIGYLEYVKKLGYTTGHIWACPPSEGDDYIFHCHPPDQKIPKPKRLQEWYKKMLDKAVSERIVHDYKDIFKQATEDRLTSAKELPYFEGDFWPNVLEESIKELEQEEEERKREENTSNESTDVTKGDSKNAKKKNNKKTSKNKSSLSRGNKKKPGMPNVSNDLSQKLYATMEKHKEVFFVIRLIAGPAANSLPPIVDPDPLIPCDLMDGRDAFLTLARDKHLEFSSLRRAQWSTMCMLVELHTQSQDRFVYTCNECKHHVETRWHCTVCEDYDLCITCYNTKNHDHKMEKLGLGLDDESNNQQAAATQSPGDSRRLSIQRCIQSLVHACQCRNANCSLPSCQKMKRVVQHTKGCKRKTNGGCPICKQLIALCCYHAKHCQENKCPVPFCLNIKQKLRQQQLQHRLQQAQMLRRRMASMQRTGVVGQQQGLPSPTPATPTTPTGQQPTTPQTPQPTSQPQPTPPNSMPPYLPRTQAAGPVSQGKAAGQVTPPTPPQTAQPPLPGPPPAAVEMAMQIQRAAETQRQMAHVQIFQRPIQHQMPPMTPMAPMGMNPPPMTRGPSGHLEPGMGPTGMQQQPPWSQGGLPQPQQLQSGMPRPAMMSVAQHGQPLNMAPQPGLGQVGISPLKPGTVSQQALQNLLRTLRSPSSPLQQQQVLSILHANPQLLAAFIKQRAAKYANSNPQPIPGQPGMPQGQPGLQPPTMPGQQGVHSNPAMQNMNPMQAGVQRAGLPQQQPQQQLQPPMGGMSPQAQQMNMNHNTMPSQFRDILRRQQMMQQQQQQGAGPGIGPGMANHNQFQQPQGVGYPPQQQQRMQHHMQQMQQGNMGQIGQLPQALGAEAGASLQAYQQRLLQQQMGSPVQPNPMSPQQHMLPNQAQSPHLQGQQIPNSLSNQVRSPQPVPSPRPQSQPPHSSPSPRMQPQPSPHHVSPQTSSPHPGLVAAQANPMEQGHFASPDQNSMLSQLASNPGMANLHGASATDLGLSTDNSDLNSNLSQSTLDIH

binding: no binding
Substance: p300 (histone acetyltransferase p300), HA-tagged, from pCDNA3-HA-p300 (from UniProt Q09472 1-2414)
